# Reference: patent US20220347256A1, “COMPOSITION FOR PROMOTING HAIR GROWTH, AND ALLEVIATING AND TREATING HAIR LOSS INCLUDING SUBSTANCE P” (Biosolution Co., Ltd., priority 2019, published 2022)
# For at least one compound, name, drawing or mass did not settle the structure. Some results were stated once for a whole list of compounds, not compound by compound.
# How the values were obtained:
# [1] = tested on: C3H/HeN mice; experiment: H&E histology, thickness and shape of skin in C3H mice with dexamethasone-induced regression phase; type: in vivo; conditions: in combination with dexamethasone
# Procedure: More specifically, after the procedure of Example 7, the skin tissue of the mice was collected in the direction of the hair follicles and fixed in a fixing solution (4% formaldehyde, Sigma, USA) for 24 hours. […] Thereafter, an infiltration process was carried out to fill the penetrant into the tissue, followed by an embedding process to make a paraffin block. For hematoxylin (Sigma, USA) and eosin (Sigma, USA) staining, the paraffin block was cut into 8 μm and attached to slides (microscope slides, Marienfeld, Germany) coated with 2% 3-aminosilane, followed by drying in a 37° C. slide warmer for 12 hours. Thereafter, the slides were immersed in xylene four times for 7 minutes each through a deparaffinization process, and subjected to hydration for staining, and then washed with water. […] One-way ANOVA was carried out to examine the difference between the entire groups, and the difference between individual means was analyzed using Tukey's test. […] This statistic was analyzed based on Prism software version 5.
# Additionally, the thickness of the dermis and the subcutaneous layers was confirmed by the Image J program. Skin thickness was measured by dividing the skin into the dermal layer (D), subcutaneous layer (SC), and whole layer (W), and 30 different areas were measured for each group and the results are shown in the graph of FIG. 13.
# [2] = tested on: C3H/HeN mice; experiment: Number of hair follicles in skin of C3H mice with dexamethasone-induced regression phase; type: in vivo; conditions: in combination with dexamethasone
# Procedure: More specifically, after the procedure of Example 7, the skin tissue of the mice was collected in the direction vertical to the hair follicles and fixed in a fixing solution (4% formaldehyde, Sigma, USA) for 24 hours. The hematoxylin and eosin staining was carried out in the same manner as in Example 8.
# Additionally, the number of hair follicles in 1 mm of skin was measured for each group by the Image J program. The number of hair follicles were measured in 10 tissues per group by dividing the skin into D, SC, and W layers, and the results are shown in the graph of FIG. 15.
smiles,measurement,setting,value
"Nc1cc(N2CCCCC2)nc(N)[n+]1[O-] [minoxidil 2%, minoxidil]",shape of skin and hair follicles (H&E staining),[1],one of the characteristics of the regression phase that the degenerated dermal papilla cell bundles are crawled up was also observed
same,skin thickness maintained compared to phosphate buffered saline,[1],≥ 130%
same,hair follicles found in dermis and subcutaneous layers (H&E staining),[2],"many hair follicles were found in the dermis layer, and more hair follicles were found in the subcutaneous layer"
